Experimental data reported in article PMC11615109, “PinX1 suppresses cancer progression by inhibiting telomerase activity in cervical squamous cell carcinoma and endocervical adenocarcinoma” (Genes & Diseases, 2024).
No constants are given. Whether binding was seen depends on the method and setting. In cells and extracts the contact can be indirect. Some results given as binding are weak or reduced against the parent protein; the word gives no strength.

Amino acid sequences for entries named in this document (tags omitted).
UniProt P54274: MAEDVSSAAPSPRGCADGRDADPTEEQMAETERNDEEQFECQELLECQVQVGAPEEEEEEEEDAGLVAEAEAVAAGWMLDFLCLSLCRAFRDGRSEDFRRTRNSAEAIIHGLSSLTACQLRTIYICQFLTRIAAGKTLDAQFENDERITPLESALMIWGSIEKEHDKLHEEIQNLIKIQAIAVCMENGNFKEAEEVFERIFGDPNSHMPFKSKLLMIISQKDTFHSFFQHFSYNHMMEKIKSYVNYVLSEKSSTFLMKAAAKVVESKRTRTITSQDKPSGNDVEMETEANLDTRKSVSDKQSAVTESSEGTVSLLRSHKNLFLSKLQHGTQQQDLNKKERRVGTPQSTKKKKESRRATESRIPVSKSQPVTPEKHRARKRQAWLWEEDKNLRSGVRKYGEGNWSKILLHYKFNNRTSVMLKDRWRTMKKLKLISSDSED

Biological target: Flag-TRF1 (UniProt P54274)
Test: co-IP; Flag-TRF1 with 2×Strep-PinX1 constructs, HeLa cell lysates

B1: 2×Strep-PinX1(2-328) (protein, UniProt Q96BK5 2-328)
chain: SMLAERRRKQKWAVDPQNTAWSNDDSKFGQRMLEKMGWSKGKGLGAQEQGATDHIKVQVKNNHLGLGATINNEDNWIAHQDDFNQLLAELNTCHGQETTDSSDKKEKKSFSLEEKSKISKNRVHYMKFTKGKDLSSRSKTDLDCIFGKRQSKKTPEGDASPSTPEENETTTTSAFTIQEYFAKRMAALKNKPQVPVPGSDISETQVERKRGKKRNKEATGKDVESYLQPKAKRHTEGKPERAEAQERVAKKKSAPAEEQLRGPCWDQSSKASAQDAGDHVQPPEGRDFTLKPKKRRGKKKLQKPVEIAEDATLEETLVKKKKKKDSK
Q: With B1 as the binder, how does the binding read?
A: binds

B2: 2×Strep-PinX1(2-328 (MUT292-301)) (protein, UniProt Q96BK5 2-328)
chain: SMLAERRRKQKWAVDPQNTAWSNDDSKFGQRMLEKMGWSKGKGLGAQEQGATDHIKVQVKNNHLGLGATINNEDNWIAHQDDFNQLLAELNTCHGQETTDSSDKKEKKSFSLEEKSKISKNRVHYMKFTKGKDLSSRSKTDLDCIFGKRQSKKTPEGDASPSTPEENETTTTSAFTIQEYFAKRMAALKNKPQVPVPGSDISETQVERKRGKKRNKEATGKDVESYLQPKAKRHTEGKPERAEAQERVAKKKSAPAEEQLRGPCWDQSSKASAQDAGDHVQPPEGRDFTLAPLGRRGVQSLQKPVEIAEDATLEETLVKKKKKKDSK
Q: Which binding does the source give for B2 here?
A: binds
